Source: publication PMC9054780
Results are given in words; binding and its absence hold for the method and conditions named. Binding seen in cells or lysates may run through a third protein. Some results given as binding are weak or reduced against the parent protein; the word gives no strength.

Chains of the proteins cited; added tags and fusions are not shown. Residues count along the entry.
UniProt P05362, residues 28-532: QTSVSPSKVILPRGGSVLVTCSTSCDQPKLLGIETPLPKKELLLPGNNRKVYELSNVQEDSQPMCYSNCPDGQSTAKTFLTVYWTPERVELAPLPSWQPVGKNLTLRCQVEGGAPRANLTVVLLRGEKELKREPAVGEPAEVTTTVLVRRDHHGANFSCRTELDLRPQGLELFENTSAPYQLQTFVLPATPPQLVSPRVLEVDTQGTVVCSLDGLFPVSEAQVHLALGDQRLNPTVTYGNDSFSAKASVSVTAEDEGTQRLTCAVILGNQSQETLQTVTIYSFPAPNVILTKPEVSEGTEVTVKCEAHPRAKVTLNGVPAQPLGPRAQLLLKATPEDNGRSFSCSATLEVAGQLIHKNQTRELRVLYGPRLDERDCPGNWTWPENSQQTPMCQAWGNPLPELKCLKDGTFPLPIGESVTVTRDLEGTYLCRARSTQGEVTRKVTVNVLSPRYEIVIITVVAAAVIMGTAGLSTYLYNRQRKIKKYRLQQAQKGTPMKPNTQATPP
UniProt P08581, residues 25-1390: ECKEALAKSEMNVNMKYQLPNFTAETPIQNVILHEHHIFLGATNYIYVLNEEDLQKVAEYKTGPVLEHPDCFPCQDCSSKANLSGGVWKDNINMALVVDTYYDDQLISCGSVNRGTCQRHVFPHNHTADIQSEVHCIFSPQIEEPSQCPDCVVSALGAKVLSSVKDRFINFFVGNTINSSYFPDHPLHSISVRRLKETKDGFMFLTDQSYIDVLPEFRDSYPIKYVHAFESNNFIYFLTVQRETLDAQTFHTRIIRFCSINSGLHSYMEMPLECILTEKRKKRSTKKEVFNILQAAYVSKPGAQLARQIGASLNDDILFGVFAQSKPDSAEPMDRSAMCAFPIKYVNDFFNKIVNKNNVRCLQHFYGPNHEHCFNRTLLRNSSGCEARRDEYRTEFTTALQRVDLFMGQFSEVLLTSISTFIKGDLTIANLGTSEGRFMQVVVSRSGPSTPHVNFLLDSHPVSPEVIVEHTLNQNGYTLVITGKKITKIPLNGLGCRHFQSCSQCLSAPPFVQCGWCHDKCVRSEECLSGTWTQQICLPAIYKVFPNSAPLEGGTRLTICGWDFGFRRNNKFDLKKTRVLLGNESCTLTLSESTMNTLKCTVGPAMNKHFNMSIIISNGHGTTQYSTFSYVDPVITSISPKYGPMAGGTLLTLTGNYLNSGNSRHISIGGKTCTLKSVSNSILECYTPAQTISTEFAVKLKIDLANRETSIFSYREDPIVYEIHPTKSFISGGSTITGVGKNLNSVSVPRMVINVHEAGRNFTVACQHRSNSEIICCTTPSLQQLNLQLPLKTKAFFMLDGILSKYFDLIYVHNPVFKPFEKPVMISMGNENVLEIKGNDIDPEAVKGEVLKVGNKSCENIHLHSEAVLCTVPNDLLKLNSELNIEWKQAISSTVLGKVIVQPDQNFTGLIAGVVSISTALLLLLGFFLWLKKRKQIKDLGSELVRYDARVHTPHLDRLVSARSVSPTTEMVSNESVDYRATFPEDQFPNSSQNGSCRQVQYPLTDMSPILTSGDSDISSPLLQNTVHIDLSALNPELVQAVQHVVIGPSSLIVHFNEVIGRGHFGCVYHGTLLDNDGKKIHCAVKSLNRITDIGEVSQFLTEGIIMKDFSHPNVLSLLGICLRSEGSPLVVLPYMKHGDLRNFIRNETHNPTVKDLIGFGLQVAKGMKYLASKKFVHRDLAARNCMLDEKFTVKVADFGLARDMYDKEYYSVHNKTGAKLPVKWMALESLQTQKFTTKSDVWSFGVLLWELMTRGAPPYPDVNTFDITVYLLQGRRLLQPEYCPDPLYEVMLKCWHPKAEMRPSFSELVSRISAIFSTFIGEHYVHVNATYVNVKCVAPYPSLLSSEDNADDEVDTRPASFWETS

Biological target: intracellular adhesion molecule-1 (ICAM-1) (human (endogenous in SW-480 and HCT-116)) (UniProt P05362)
Assay: co-IP; endogenous proteins in lysates of SW-480 and HCT-116 cells (40 mM Tris-HCl pH 8.0, 120 mM NaCl, 0.1% Nonidet-P40); primary antibody overnight, protein A-agarose 2 h at 4 °C, IgG as control; for c-MET and SRC also after silencing of ICAM-1 or ICAM-1 neutralizing antibody (2 ug/mL)

binding: binds
Substance: tyrosine-protein kinase Met (c-MET) (from UniProt P08581 25-1390) (receptor)
